Reference: article PMC10576046
Results are given in words; binding and its absence hold for the method and conditions named. In cells and extracts the contact can be indirect. Some entries that bind do so weakly or less than the wild type.

Sequences of proteins named here, by UniProt entry; tags and fusion partners are left off.
UniProt Q96AC1: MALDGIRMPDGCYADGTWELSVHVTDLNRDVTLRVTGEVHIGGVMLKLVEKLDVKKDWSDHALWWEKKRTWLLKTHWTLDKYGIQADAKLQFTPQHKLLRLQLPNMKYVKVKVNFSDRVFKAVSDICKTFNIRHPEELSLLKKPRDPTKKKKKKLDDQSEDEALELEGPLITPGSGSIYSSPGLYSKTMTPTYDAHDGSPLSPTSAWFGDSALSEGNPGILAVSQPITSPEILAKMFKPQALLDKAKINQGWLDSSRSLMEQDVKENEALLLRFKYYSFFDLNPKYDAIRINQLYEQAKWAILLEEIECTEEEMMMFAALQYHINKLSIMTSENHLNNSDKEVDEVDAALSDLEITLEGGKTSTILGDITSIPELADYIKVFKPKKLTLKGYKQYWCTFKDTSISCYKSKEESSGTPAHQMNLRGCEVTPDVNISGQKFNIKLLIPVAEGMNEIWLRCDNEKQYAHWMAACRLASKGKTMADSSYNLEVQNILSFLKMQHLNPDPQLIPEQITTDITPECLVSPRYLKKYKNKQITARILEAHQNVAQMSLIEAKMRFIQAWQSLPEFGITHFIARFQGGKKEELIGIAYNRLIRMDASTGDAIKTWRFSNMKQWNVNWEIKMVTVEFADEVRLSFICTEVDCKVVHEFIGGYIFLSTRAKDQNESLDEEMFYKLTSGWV
UniProt P40763: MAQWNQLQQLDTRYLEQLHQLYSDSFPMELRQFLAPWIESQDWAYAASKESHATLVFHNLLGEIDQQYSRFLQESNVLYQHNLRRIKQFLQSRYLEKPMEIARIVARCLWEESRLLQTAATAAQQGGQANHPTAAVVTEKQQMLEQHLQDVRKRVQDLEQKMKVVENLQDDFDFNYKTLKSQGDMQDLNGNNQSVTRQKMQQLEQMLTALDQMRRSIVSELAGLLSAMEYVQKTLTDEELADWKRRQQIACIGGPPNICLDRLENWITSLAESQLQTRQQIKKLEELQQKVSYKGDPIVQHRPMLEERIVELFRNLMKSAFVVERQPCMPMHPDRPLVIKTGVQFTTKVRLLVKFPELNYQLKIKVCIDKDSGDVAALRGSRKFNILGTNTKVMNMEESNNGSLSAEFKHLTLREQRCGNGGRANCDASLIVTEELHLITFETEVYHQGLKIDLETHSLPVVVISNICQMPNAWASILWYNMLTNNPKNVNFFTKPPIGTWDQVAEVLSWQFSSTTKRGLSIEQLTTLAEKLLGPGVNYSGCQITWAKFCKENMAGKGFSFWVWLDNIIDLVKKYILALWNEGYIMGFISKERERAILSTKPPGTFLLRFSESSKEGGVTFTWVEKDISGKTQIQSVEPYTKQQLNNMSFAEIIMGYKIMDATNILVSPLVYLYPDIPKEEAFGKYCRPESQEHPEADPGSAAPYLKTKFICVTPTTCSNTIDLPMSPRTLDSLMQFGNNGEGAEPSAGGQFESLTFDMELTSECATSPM

How the values were obtained:
[1] = target: Kindlin-2 (human (endogenous in MDA-MB-231 and HEK293T)) (UniProt Q96AC1); test: co-IP; HEK293T cell lysate (RIPA buffer); precipitated with anti-Kindlin-2 antibody or control IgG, protein A or G agarose, blotted with anti-STAT3
[2] = target: Kindlin-2 (human (endogenous in MDA-MB-231 and HEK293T)) (UniProt Q96AC1); test: co-IP; MDA-MB-231 cell lysate (RIPA buffer); precipitated with anti-Kindlin-2 antibody or control IgG, protein A or G agarose, blotted with anti-STAT3

binding [1]: binds
binding [2]: binds
Substance: STAT3 (from UniProt P40763 1-770)
